These are yes or no findings as the source states them, for the method shown. Some results given as binding are weak or reduced against the parent protein; the word gives no strength.
Columns and labels:
His-HDAC2 = His-HDAC2 (UniProt Q92769); assay: pull-down; His pull-down: His-HDAC1 or His-HDAC2 (beads bound, from E. coli) incubated overnight with GST-p53 (eluted, from E. coli), without or with FLAG-ZEB1 (FLAG peptide eluted, from 293T cells); both purified
His-HDAC1 = His-HDAC1 (UniProt Q13547); assay: as above

binding (His-HDAC2): binds weakly
binding (His-HDAC1): binds weakly
Substance: GST-p53 (from UniProt P04637 1-393)
